# Results: the supplement of paper PMC12067093, “Discovery and optimisation of a covalent ligand for TRIM25 and its application to targeted protein ubiquitination” (Chemical Science, 2025)
# This is one part of the list.
# Compound: Cc1cc(ccc1-c1ccccc1)C(=O)N1CCCN(CC1)C(=O)CCl [compound 10]
# Experiment: probe-labelled cysteine peptide fold change vs DMSO (competition) (log2 fold change); higher = less target engagement (more negative = stronger competition)
# Details: THP-1, incubation time: 4 h
# 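Also: competitive profiling in live THP-1 cells: cysteine peptides tagged with an iodoacetamide desthiobiotin (IA-DTB) probe, intensity after compound treatment relative to DMSO-treated cells.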
target,measurement,setting,value
ITPK1_Q13572_137_KIEAYMEDDRICSPPFMELTSLCGDDTMR (UniProt Q13572),probe-labelled cysteine peptide fold change,10 µM,0.268
same,probe-labelled cysteine peptide fold change,50 µM,-0.0984
ITGB2_P05107_62_CDTRPQLLMR (UniProt P05107),probe-labelled cysteine peptide fold change,10 µM,-0.0136
same,probe-labelled cysteine peptide fold change,50 µM,-0.109
ITGB2_P05107_420_VTATECIQEQSFVIR (UniProt P05107),probe-labelled cysteine peptide fold change,10 µM,-0.062
same,probe-labelled cysteine peptide fold change,50 µM,0.00506
ITGB2_P05107_670_ERDSEGCWVAYTLEQQDGMDR (UniProt P05107),probe-labelled cysteine peptide fold change,10 µM,0.42
same,probe-labelled cysteine peptide fold change,50 µM,0.326
IPO4_Q8TEX9_95_ETEHCVSLSLAQLSATIFR (UniProt Q8TEX9),probe-labelled cysteine peptide fold change,10 µM,-0.203
same,probe-labelled cysteine peptide fold change,50 µM,-0.192
IRF8_Q02556_223_LVGQATTTCPEGCR (UniProt Q02556),probe-labelled cysteine peptide fold change,10 µM,0.189
same,probe-labelled cysteine peptide fold change,50 µM,0.153
ISOC2_Q96AB3_21_VLPGSSVLFLCDMQEK (UniProt Q96AB3),probe-labelled cysteine peptide fold change,10 µM,-0.115
same,probe-labelled cysteine peptide fold change,50 µM,0.0895
INSR_P06213_899_RYGDEELHLCVSR (UniProt P06213),probe-labelled cysteine peptide fold change,10 µM,-0.188
same,probe-labelled cysteine peptide fold change,50 µM,0.0944
ITGB2_P05107_198_ECQPPFAFR (UniProt P05107),probe-labelled cysteine peptide fold change,10 µM,-0.0264
same,probe-labelled cysteine peptide fold change,50 µM,0.0254
IPO5_O00410_348_MACGLGGK (UniProt O00410),probe-labelled cysteine peptide fold change,10 µM,-0.173
same,probe-labelled cysteine peptide fold change,50 µM,0.0487
IREB2_P48200_120_VHPACPTDLTVDHSLQIDFSK (UniProt P48200),probe-labelled cysteine peptide fold change,10 µM,-0.116
same,probe-labelled cysteine peptide fold change,50 µM,0.117
IPO13_O94829_309_QAVQNGDMETSHGICR (UniProt O94829),probe-labelled cysteine peptide fold change,10 µM,-0.00126
same,probe-labelled cysteine peptide fold change,50 µM,-0.0261
INSR_P06213_196_TNCPATVINGQFVER (UniProt P06213),probe-labelled cysteine peptide fold change,10 µM,-0.0772
same,probe-labelled cysteine peptide fold change,50 µM,-0.103
IPO4_Q8TEX9_962_VRDNICGALAR (UniProt Q8TEX9),probe-labelled cysteine peptide fold change,10 µM,0.198
same,probe-labelled cysteine peptide fold change,50 µM,-0.409

# An excerpt of these results, with bars between the fields:
target | measurement | setting | value
ITGB2_P05107_62_CDTRPQLLMR (UniProt P05107) | probe-labelled cysteine peptide fold change | 10 µM | -0.0136
IREB2_P48200_120_VHPACPTDLTVDHSLQIDFSK (UniProt P48200) | probe-labelled cysteine peptide fold change | 10 µM | -0.116
